Source: PubChem BioAssay AID652243 (Drosophila RNAi Screening Center, 2013)
Aim: 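Knock-downs that decrease or increase androgen receptor reporter signal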 (primary screen). Cell system: Drosophila S2R+ cells. Reagent: long dsRNA against Drosophila genes. Time to read-out: 72 h (48 h, then 24 h hormone). Treatment: synthetic androgen R1881 at 10 nM for 24 h. Measurement: 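Per-well raw luminescence of the androgen-driven firefly reporter and of the Renilla control, two replicates each, without normalisation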. Direction: firefly reporter light: higher = more light from androgen-responsive reporter; Renilla control light: higher = more constitutive control signal (cell number, transfection). Active means: 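Across duplicate plates, a knock-down whose log firefly/Renilla ratio shifted a set fold down or up from the GFP/LacZ control mean was a hit; the downward cut appears as both 1.5 and 3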. Meaning of the calls: active = hit: reporter lowered or raised; inactive = no hit.
In all, the deposit lists about 24,000 reagents; below is an unselected part of those that have a named target and a result. In the full data, 246 (1%) were called active. 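Plates not normalised; calls are printed but the firefly/Renilla ratio behind them is not deposited; fold cut for lowering reported inconsistently.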 Raw values vary from plate to plate and are shown uncorrected. The numbers tell different reagents against one gene apart. Names joined by + are all predicted targets of the reagent. Not given: the amount of reagent.

| firefly reporter light, replicate 1 | firefly reporter light, replicate 2 | Renilla control light, replicate 1 | Renilla control light, replicate 2 | activity call | gene | reagent |
| --- | --- | --- | --- | --- | --- | --- |
| 89757 | 1.35e5 | 1.06e6 | 1.17e6 | inactive | Spn31A (GeneID 34339) | 1 |
| 9.18e5 | 6.42e5 | 1.26e6 | 1.18e6 | inactive | Spn31A (GeneID 34339) | 2 |
| 1.76e5 | 1.65e5 | 2.50e6 | 2.20e6 | inactive | tnc (GeneID 42990) | 1 |
| 2.30e5 | 3.90e5 | 1.04e6 | 9.54e5 | inactive | tnc (GeneID 42990) | 2 |
| 73256 | 98687 | 5.27e5 | 6.41e5 | inactive | CG17078 (GeneID 33195) | 1 |
| 8.02e5 | 9.53e5 | 7.59e5 | 5.10e5 | inactive | CG17078 (GeneID 33195) | 2 |
| 70461 | 1.04e5 | 7.56e5 | 5.44e5 | inactive | AMPKalpha (GeneID 43904) | 1 |
| 4.41e5 | 4.66e5 | 1.52e6 | 1.70e6 | inactive | AMPKalpha (GeneID 43904) | 2 |
| – | – | – | – | inactive | AMPKalpha (GeneID 43904) | 3 |
| 6.37e5 | 8.75e5 | 9.12e5 | 1.25e6 | inactive | Cyp4d21 (GeneID 34036) | 1 |
| 5.41e5 | 5.84e5 | 3.81e5 | 5.24e5 | inactive | Cyp4d21 (GeneID 34036) | 2 |
| 9.07e5 | 9.33e5 | 1.13e6 | 9.81e5 | inactive | DCTN2-p50 (GeneID 44086) | 1 |
| 4.27e5 | 4.37e5 | 1.12e6 | 1.96e6 | inactive | Sobp (GeneID 36260) | 1 |
| 6.04e5 | 5.35e5 | 1.16e6 | 1.03e6 | inactive | Sobp (GeneID 36260) | 2 |
| 93995 | 1.24e5 | 1.73e6 | 1.79e6 | inactive | asRNA:CR31514 + CG12947 | 1 |
| 90483 | 1.60e5 | 1.21e6 | 1.22e6 | inactive | CG5828 (GeneID 33742) | 1 |
| 7.19e5 | 7.10e5 | 9.55e5 | 9.41e5 | inactive | CG5828 (GeneID 33742) | 2 |
| 9.06e5 | 7.38e5 | 2.09e6 | 2.38e6 | inactive | CG41561 (GeneID 5740542) | 1 |
| 46414 | 45205 | 1.13e6 | 1.03e6 | inactive | CG14606 (GeneID 40866) | 1 |
| 1.84e5 | 2.22e5 | 2.02e6 | 2.81e6 | inactive | CG31029 (GeneID 318562) | 1 |
| 3.87e5 | 5.18e5 | 8.52e5 | 8.52e5 | inactive | CG31029 (GeneID 318562) | 2 |
| 42689 | 61689 | 3.65e5 | 5.15e5 | inactive | Vps15 (GeneID 41096) | 1 |
| – | – | – | – | inactive | Vps15 (GeneID 41096) | 2 |
| – | – | – | – | inactive | Vps15 (GeneID 41096) | 3 |
| 2.71e5 | 1.73e5 | 2.09e6 | 1.83e6 | inactive | Vtld + CG42529 | 1 |
| 2.57e5 | 1.89e5 | 3.87e6 | 3.05e6 | inactive | CG17778 (GeneID 30996) | 1 |
| 1.93e5 | 1.79e5 | 1.61e6 | 1.56e6 | inactive | ord (GeneID 37687) | 1 |
| 1.07e6 | 1.32e6 | 1.76e6 | 2.23e6 | inactive | ntc (GeneID 38443) | 1 |
| 1.31e5 | 1.38e5 | 8.35e5 | 9.82e5 | inactive | CG15408 (GeneID 33548) | 1 |
| 18762 | 25756 | 1.37e6 | 1.40e6 | inactive | Dpck (GeneID 40846) | 1 |
| 8.67e5 | 6.19e5 | 1.92e6 | 1.39e6 | inactive | Pop2 (GeneID 39366) | 1 |
| 6.70e5 | 4.64e5 | 2.11e6 | 1.27e6 | inactive | Pop2 (GeneID 39366) | 2 |
| 1.66e5 | 2.38e5 | 1.28e6 | 1.54e6 | inactive | CG3650 (GeneID 37974) | 1 |
| 5.42e5 | 4.54e5 | 1.24e6 | 1.30e6 | inactive | CG3650 (GeneID 37974) | 2 |
| 38224 | 17039 | 67810 | 1.24e5 | inactive | snRNA:U1:95Cc + CG43285 (retired record) | 1 |
| 5.26e5 | 6.39e5 | 2.01e6 | 3.02e6 | inactive | CG11885 (GeneID 33215) | 1 |
| 2.92e5 | 2.70e5 | 2.05e6 | 1.38e6 | inactive | CG13000 (GeneID 32685) | 1 |
| 1.77e6 | 1.38e6 | 1.45e6 | 1.14e6 | inactive | CG13000 (GeneID 32685) | 2 |
| 1.18e5 | 1.58e5 | 3.63e6 | 3.15e6 | inactive | CG17944 (GeneID 40885) | 1 |
| 1.96e5 | 2.31e5 | 2.36e6 | 1.54e6 | inactive | Pdha (GeneID 31406) | 1 |
| 2.78e5 | 2.31e5 | 7.08e5 | 6.37e5 | inactive | Pdha (GeneID 31406) | 2 |
| 85475 | 57192 | 5.77e5 | 7.83e5 | inactive | CG4297 (GeneID 33222) | 1 |
| 2.33e5 | 2.93e5 | 1.48e6 | 1.41e6 | inactive | Dscam1 (GeneID 35652) | 1 |
| 8.26e5 | 7.00e5 | 9.42e5 | 7.00e5 | inactive | Dscam1 (GeneID 35652) | 2 |
| 6.47e5 | 6.48e5 | 2.57e6 | 2.53e6 | inactive | Dscam1 (GeneID 35652) | 3 |
| 4.24e5 | 4.77e5 | 1.08e6 | 1.04e6 | inactive | Dscam1 (GeneID 35652) | 4 |
| 88294 | 1.69e5 | 1.22e6 | 2.29e6 | inactive | PGRP-SD (GeneID 38858) | 1 |
| 1.23e5 | 93753 | 8.29e5 | 9.40e5 | inactive | CG17237 (GeneID 33411) | 1 |
| 2.96e5 | 2.31e5 | 1.42e6 | 9.55e5 | inactive | CG1701 (GeneID 35661) | 1 |
| 1.44e5 | 1.12e5 | 1.14e6 | 1.24e6 | inactive | Trp1 (GeneID 34333) | 1 |
| 5.60e5 | 3.27e5 | 8.92e5 | 4.98e5 | inactive | Trp1 (GeneID 34333) | 2 |
| 1.19e5 | 98325 | 4.11e5 | 3.69e5 | inactive | Gfat1 (GeneID 3354921) | 1 |
| 2.88e5 | 4.33e5 | 9.13e5 | 9.13e5 | inactive | Gfat1 (GeneID 3354921) | 2 |
| 9.81e5 | 9.95e5 | 1.91e6 | 1.97e6 | inactive | GlcAT-S (GeneID 34282) | 1 |
| 2.89e5 | 2.13e5 | 6.91e5 | 5.47e5 | inactive | GlcAT-S (GeneID 34282) | 2 |
| 45097 | 52795 | 1.12e5 | 1.01e5 | inactive | CNMaR (GeneID 39127) | 1 |
| 1.17e5 | 98269 | 2.05e6 | 1.24e6 | inactive | CNMaR (GeneID 39127) | 2 |
| 1.82e5 | 2.41e5 | 2.29e6 | 2.86e6 | inactive | AP-1gamma (GeneID 31842) | 1 |

8 of these entries, reformatted:
Cyp4d21 (GeneID 34036) #2 | firefly reporter light, replicate 1: 5.41e5; firefly reporter light, replicate 2: 5.84e5; Renilla control light, replicate 1: 3.81e5; Renilla control light, replicate 2: 5.24e5; activity call: inactive
DCTN2-p50 (GeneID 44086) | firefly reporter light, replicate 1: 9.07e5; firefly reporter light, replicate 2: 9.33e5; Renilla control light, replicate 1: 1.13e6; Renilla control light, replicate 2: 9.81e5; activity call: inactive
Sobp (GeneID 36260) #1 | firefly reporter light, replicate 1: 4.27e5; firefly reporter light, replicate 2: 4.37e5; Renilla control light, replicate 1: 1.12e6; Renilla control light, replicate 2: 1.96e6; activity call: inactive
Sobp (GeneID 36260) #2 | firefly reporter light, replicate 1: 6.04e5; firefly reporter light, replicate 2: 5.35e5; Renilla control light, replicate 1: 1.16e6; Renilla control light, replicate 2: 1.03e6; activity call: inactive
asRNA:CR31514 + CG12947 | firefly reporter light, replicate 1: 93995; firefly reporter light, replicate 2: 1.24e5; Renilla control light, replicate 1: 1.73e6; Renilla control light, replicate 2: 1.79e6; activity call: inactive
CG5828 (GeneID 33742) #1 | firefly reporter light, replicate 1: 90483; firefly reporter light, replicate 2: 1.60e5; Renilla control light, replicate 1: 1.21e6; Renilla control light, replicate 2: 1.22e6; activity call: inactive
CG5828 (GeneID 33742) #2 | firefly reporter light, replicate 1: 7.19e5; firefly reporter light, replicate 2: 7.10e5; Renilla control light, replicate 1: 9.55e5; Renilla control light, replicate 2: 9.41e5; activity call: inactive
CG41561 (GeneID 5740542) | firefly reporter light, replicate 1: 9.06e5; firefly reporter light, replicate 2: 7.38e5; Renilla control light, replicate 1: 2.09e6; Renilla control light, replicate 2: 2.38e6; activity call: inactive
